Test results: paper PMC11338949, “E41K mutation activates Bruton’s tyrosine kinase by stabilizing an inositol hexakisphosphate-dependent invisible dimer” (The Journal of Biological Chemistry, 2024)
These are yes or no findings as the source states them, for the method shown.

Chains of the proteins cited; added tags and fusions are not shown. Lines headed by an entry give the natural chain unless they say otherwise; changes in a name come on top. A line that says so, or that is headed by a name, gives the form on record, which may keep a tag or linker. Residues count along the entry.
PH-TH domain of BTK wildtype (amino acid residue number 4-170) (Q06187, residues 4-170): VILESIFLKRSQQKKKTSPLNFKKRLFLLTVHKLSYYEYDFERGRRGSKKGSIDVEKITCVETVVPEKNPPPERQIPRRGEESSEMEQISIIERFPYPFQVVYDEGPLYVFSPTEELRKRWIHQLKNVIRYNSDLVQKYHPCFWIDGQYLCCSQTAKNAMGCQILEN
triple mutant of the PH-TH domain of BTK (E41K/R28H/R49S) (Q06187, form named): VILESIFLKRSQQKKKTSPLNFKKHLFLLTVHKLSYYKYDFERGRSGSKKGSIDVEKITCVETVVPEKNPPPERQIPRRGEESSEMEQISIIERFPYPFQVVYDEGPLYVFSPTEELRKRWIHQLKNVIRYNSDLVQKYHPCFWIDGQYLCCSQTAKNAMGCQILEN
PH-TH domain of BTK, E41K/R28H double mutant (Q06187, form named): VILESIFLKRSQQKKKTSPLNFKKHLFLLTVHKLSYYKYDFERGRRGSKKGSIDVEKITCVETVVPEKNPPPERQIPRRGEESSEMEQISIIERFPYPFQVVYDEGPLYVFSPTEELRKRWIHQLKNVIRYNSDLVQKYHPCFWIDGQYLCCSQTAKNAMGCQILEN
PH-TH domain of BTK, E41K/R49S double mutant (Q06187, form named): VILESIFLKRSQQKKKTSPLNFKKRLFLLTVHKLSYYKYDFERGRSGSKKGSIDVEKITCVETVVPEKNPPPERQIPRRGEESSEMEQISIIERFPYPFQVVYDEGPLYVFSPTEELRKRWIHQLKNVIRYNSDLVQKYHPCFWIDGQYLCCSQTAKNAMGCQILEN

What was measured:
[1] = biological target: triple mutant of the PH-TH domain of BTK (E41K/R28H/R49S) (UniProt Q06187); assay: SEC; Superdex-200 10/300 GL; 500 ul of 75 uM protein mixed with IP6 at 1:4 (300 uM), 15 min at 4 C; column pre-equilibrated with running buffer containing the ligand; 25 mM Tris-Cl, 100 mM NaCl, 1 mM DTT, pH 7.2; 0.3 ml/min, 8 C; both purified
[2] = biological target: PH-TH domain of BTK wildtype (amino acid residue number 4-170) (UniProt Q06187); assay: dynamic light scattering; Malvern Zetasizer; in the presence of IP6; 25 mM Tris-Cl, 100 mM NaCl, 1 mM DTT, pH 7.2; hydrodynamic radius compared with the theoretical radius of the dimer (3.0 nm, Hydropro); both purified
[3] = biological target: PH-TH domain of BTK wildtype (amino acid residue number 4-170) (UniProt Q06187); assay: SEC; Superdex-200 10/300 GL; 500 ul of 75 uM protein mixed with IP6 at 1:4 (300 uM), 15 min at 4 C; column pre-equilibrated with running buffer containing the ligand; 25 mM Tris-Cl, 100 mM NaCl, 1 mM DTT, pH 7.2; 0.3 ml/min, 8 C; both purified
[4] = biological target: PH-TH domain of BTK, E41K/R28H double mutant (UniProt Q06187); assay: as above
[5] = biological target: PH-TH domain of BTK, E41K/R49S double mutant (UniProt Q06187); assay: as above

“triple mutant of the PH-TH domain of BTK (E41K/R28H/R49S) (from UniProt Q06187 4-170) (domain or fragment)” was tested, and the binding [1] was “no binding (tested: 75 uM protein loaded)”.

For “PH-TH domain of BTK wildtype (amino acid residue number 4-170) (from UniProt Q06187 4-170) (domain or fragment)”, the binding [2] was “no binding” and the binding [3] was “no binding (tested: 75 uM protein loaded, with IP6)”.

With “PH-TH domain of BTK, E41K/R28H double mutant (from UniProt Q06187 4-170) (domain or fragment)” the binding [4] was “no binding (tested: 75 uM protein loaded, with IP6)”.

With “PH-TH domain of BTK, E41K/R49S double mutant (from UniProt Q06187 4-170) (domain or fragment)” the binding [5] was “no binding (tested: 75 uM protein loaded, with IP6)”.
